Experimental data as given in paper PMC5311967.
Results are given in words; binding and its absence hold for the method and conditions named. Binding seen in cells or lysates may run through a third protein. Some entries that bind do so weakly or less than the wild type.

Chains of the proteins cited; added tags and fusions are not shown. Lines headed by an entry give the natural chain unless they say otherwise; changes in a name come on top. A line that says so, or that is headed by a name, gives the form on record, which may keep a tag or linker.
UniProt P10275: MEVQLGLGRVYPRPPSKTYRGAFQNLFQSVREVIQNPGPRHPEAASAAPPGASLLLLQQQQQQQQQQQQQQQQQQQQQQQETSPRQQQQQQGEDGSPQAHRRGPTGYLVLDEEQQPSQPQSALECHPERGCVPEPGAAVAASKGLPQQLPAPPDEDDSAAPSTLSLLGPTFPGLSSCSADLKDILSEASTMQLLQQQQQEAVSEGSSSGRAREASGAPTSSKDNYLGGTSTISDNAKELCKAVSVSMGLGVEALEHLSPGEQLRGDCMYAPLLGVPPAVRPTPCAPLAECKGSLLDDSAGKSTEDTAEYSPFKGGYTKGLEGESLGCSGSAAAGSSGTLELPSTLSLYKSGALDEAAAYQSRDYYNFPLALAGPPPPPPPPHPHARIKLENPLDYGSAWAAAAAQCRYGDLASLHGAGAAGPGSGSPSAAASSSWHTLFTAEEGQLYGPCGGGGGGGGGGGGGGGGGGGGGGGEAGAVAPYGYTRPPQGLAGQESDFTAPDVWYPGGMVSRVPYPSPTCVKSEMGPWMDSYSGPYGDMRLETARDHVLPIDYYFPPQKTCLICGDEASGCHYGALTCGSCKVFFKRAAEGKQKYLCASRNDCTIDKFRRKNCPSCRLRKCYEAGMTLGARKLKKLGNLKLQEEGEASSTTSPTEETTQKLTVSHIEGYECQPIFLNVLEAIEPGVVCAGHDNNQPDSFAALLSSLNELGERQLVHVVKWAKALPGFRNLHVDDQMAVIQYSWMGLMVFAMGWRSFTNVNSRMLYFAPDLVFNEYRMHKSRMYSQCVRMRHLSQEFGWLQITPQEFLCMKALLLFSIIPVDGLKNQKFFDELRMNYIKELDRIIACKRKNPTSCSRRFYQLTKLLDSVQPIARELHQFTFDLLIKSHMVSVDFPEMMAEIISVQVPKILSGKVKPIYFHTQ
androgen receptor variant AR-V7 (P10275, form named): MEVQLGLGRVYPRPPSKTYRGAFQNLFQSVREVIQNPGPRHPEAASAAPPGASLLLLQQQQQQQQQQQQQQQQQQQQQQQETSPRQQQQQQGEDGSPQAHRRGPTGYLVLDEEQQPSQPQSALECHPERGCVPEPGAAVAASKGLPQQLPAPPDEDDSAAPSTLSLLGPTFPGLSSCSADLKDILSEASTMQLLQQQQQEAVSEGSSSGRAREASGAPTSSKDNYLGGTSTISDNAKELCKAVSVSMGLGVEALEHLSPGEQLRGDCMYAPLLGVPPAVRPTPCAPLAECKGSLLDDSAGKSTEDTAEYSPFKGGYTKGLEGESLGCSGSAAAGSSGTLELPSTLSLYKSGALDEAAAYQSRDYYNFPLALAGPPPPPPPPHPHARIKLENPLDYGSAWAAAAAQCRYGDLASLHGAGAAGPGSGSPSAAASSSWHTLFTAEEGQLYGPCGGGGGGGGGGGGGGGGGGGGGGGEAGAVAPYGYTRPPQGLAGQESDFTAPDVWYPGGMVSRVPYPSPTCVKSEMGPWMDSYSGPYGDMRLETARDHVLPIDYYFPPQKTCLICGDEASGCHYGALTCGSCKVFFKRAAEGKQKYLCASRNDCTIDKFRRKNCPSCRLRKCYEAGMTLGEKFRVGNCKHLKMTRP

Legend:
[1] = target: androgen receptor variant AR-V7 (UniProt P10275); test: co-IP; immunoprecipitation with the NTD-binding anti-AR antibody (N-20) from cells co-transfected for 48 hours with Aurora A and FL-AR, AR-V7 or AR-123/2b (PC-3 in the text, HEK293 in the legend); western blot with anti-AR (N-20) and anti-Aurora A
[2] = target: full-length androgen receptor (UniProt P10275); test: as above

- binding [1]: no binding
- binding [2]: binds
B1: Aurora A kinase (enzyme, UniProt O14965 1-403)
chain: MDRSKENCISGPVKATAPVGGPKRVLVTQQFPCQNPLPVNSGQAQRVLCPSNSSQRIPLQAQKLVSSHKPVQNQKQKQLQATSVPHPVSRPLNNTQKSKQPLPSAPENNPEEELASKQKNEESKKRQWALEDFEIGRPLGKGKFGNVYLAREKQSKFILALKVLFKAQLEKAGVEHQLRREVEIQSHLRHPNILRLYGYFHDATRVYLILEYAPLGTVYRELQKLSKFDEQRTATYITELANALSYCHSKRVIHRDIKPENLLLGSAGELKIADFGWSVHAPSSRRTTLCGTLDYLPPEMIEGRMHDEKVDLWSLGVLCYEFLVGKPPFEANTYQETYKRISRVEFTFPDFVTEGARDLISRLLKHNPSQRPMLREVLEHPWITANSSKPSNCQNKESASKQS
